Assay [1] concerns the target T1, Recombinant human GITR and human Fc fusion protein (hGITR-hFc) (human) (UniProt Q9Y5U5).
T1 sequence (chain, biotinylated in the ForteBio assay (sites not stated)): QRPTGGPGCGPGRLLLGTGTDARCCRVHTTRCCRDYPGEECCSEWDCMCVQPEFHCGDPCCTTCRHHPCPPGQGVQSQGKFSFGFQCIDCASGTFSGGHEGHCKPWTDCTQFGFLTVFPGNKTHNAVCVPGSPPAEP
Nature of the assay: ForteBio Octet QK, streptavidin biosensors coated with biotinylated hGITR-hFc.

Assay [2] has as its target T2, human GITR (hGITR) (human) (UniProt Q9Y5U5).
T2 sequence: T1 sequence (chain, biotinylated in the ForteBio assay (sites not stated))
Nature of the assay: sandwich ELISA of hybridoma supernatant. (An ELISA detects its analyte on a solid surface through an enzyme-linked reagent.)

From patent US20170306038A1, “COMPOSITIONS AND METHODS OF USE FOR AUGMENTED IMMUNE RESPONSE AND CANCER THERAPY” (priority 2014, published 2017) come the findings set out here.

Changes are numbered by the printed parent chain. No constants are given. Whether binding was seen depends on the method and setting. Some binding calls cover weakened binding; strength is not graded here. For some assays here: Where a sequence is shown, tags or fusion partners need not be part of it.

B1: MAB1rFab (Fab, V domains shown)
VH: QVQLKESGPGLVAPSQSLSITCTVSGFSLRSYGVDWVRQPPGKGLEWLGVIWGGGGTNYNSALMAKLSISKDKSKSQVFLKMNSLQTDDTAMYYCAKHAYGHDGGFAMDYWGQGTSVTVSS
VL: EIVMTQSPKSMSMSVGERVTLSCKASENVDTFVSWYQQKPDHSPKLLIYGASNRYTGVPDRFTGSGSATDFTLTISSVQAEDLADYHCGQSYSYPFTFGSGTKLEIK
Consider B1, for which the binding result in assay [1] is given as “binds”.

B2: MAB1 (antibody, V domains shown)
VH: B1 VH
VL: B1 VL with E1N
B2: in assay [2], the binding result is “binds”.
